# Test results: PMC7819943, “Rice protein-binding microarrays: a tool to detect cis-acting elements near promoter regions in rice”
# The chains behind the UniProt entries cited, without tags or fusion partners.
# UniProt Q0JBA9, entry or part of it: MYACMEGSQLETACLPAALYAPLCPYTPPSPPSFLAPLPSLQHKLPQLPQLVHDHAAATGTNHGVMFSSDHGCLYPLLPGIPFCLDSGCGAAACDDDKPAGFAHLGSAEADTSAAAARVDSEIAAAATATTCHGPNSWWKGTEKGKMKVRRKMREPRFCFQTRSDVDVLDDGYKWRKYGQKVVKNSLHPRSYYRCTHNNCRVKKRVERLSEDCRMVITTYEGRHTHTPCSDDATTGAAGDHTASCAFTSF
# This is one part of the list.
# Molecular target: OsWRKY34 (Oryza sativa, UniProt Q0JBA9 1-250)
# Assay: protein-binding microarray (RPBM); PBS, 2% BSA, 51.3 ng/ul salmon testes DNA, 50 uM zinc acetate, 200 nM TF, 25 C, 1 h; high values mean tight binding
# Details: protein: recombinant; tags: N-terminal polyhistidine and DsRed monomer fusion (pET32a); label: CyDye5-dUTP incorporated in the synthesized complementary strand; 3' TTTTT single-stranded linker to array surface; dsDNA, one strand shown
# How it was run: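 Ni–NTA purification followed expression in E. coli BL21-CodonPlus of transcription factors fused N-terminally to a polyhistidine tag and DsRed. At 200 nM in PBS with 2% BSA, salmon testes DNA and 50 µM zinc acetate, the protein was incubated for 1 h at 25 °C with a custom Agilent array that had been primer-extended with Cy5-dUTP and blocked with 2% BSA. After washing, the array was read on an Axon 4000B scanner. The binding signal is per-feature fluorescence intensity in arbitrary units.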
row,Sequence,binding signal
1,TCTGAAGATGAGAGAGAGCTCACAGTTTATGGTTTTTGTACGGAGTCACCTAGTGCAG,8830 fluorescence intensity (a.u.)
2,CTCCAATTCAGCCATTATTCACCTATCTTCTCCAGCCATGCGGAGTCACCTAGTGCAG,8260 fluorescence intensity (a.u.)
3,TGTTTCTAAGATCTTCGTCCTAGCACATATACCATCACATCGGAGTCACCTAGTGCAG,11000 fluorescence intensity (a.u.)
4,ATTATGGTTGTCTGTCTGTGTCCTGTGCTCTCTAGATACACGGAGTCACCTAGTGCAG,10300 fluorescence intensity (a.u.)
5,GTGTTGTGGTTTACTGAATTGATGTTTGGCTTAAGTGATGCGGAGTCACCTAGTGCAG,11800 fluorescence intensity (a.u.)
6,TACAATCCAACCCTATATACCCTCGTTGCCATCTGTCTTACGGAGTCACCTAGTGCAG,13000 fluorescence intensity (a.u.)
7,GGTTGTTGAGATTAGTCCTATCCTTTGTACACGCCACGGCCGGAGTCACCTAGTGCAG,10900 fluorescence intensity (a.u.)
8,CTCTCGCCGTCGCTTGCCCCTCGCGCCACCGCGTCCGCCTCGGAGTCACCTAGTGCAG,8700 fluorescence intensity (a.u.)
9,AGAAGTTACTCCCTACATTTACTTTTGATATGCATATTTCCGGAGTCACCTAGTGCAG,10700 fluorescence intensity (a.u.)
10,GACTCCATCTCCCTCTTCGTCGACGTCGCCGGCGGCGGCGCGGAGTCACCTAGTGCAG,8130 fluorescence intensity (a.u.)
11,GTTGAGTCTGCCCTCGTAACCACCAACTAACATGTAAGCCCGGAGTCACCTAGTGCAG,9750 fluorescence intensity (a.u.)
12,GGGGCGGATAGGGGAGAACGAAGCGTGCGCGATCTGATCGCGGAGTCACCTAGTGCAG,8850 fluorescence intensity (a.u.)
13,CCTCGCGCTCTCTCTCTTCTTTCCCTCGGCCGCGCGGCCGCGGAGTCACCTAGTGCAG,10400 fluorescence intensity (a.u.)
14,CCTCCACACTCGCGGCGACCTCGTCGGCCTGTCACCTTTCCGGAGTCACCTAGTGCAG,8280 fluorescence intensity (a.u.)
15,ACGTTTTGCAATCCTCTGTTGTGTAGTTCTTTTTTATTAGCGGAGTCACCTAGTGCAG,8970 fluorescence intensity (a.u.)
16,ATACTCAAACCCCAATATTAGTTTACTCTCACGTTATCTTCGGAGTCACCTAGTGCAG,8550 fluorescence intensity (a.u.)
17,CCTCTCCCTCGTGTTCCGCGCACACCATTTTTAAATAACTCGGAGTCACCTAGTGCAG,8320 fluorescence intensity (a.u.)
18,CTTTTATTTTTCATTTTTCCAATATGCTAGTATTTCTTTCCGGAGTCACCTAGTGCAG,9440 fluorescence intensity (a.u.)
19,AATAGTGATGTTTTTCACGTGTAATTATACAGATTTCTCACGGAGTCACCTAGTGCAG,8180 fluorescence intensity (a.u.)
20,CACCCCTAGCCGTCAGTGTATTTCACTCATCAATTAAATTCGGAGTCACCTAGTGCAG,9010 fluorescence intensity (a.u.)
21,TGATCTATTTTTGCGTGGTTGGGCCAAGGGGAGGAGGAGTCGGAGTCACCTAGTGCAG,10300 fluorescence intensity (a.u.)

# At a glance, part of the list above.
row,Sequence,binding signal
11,GTTGAGTCTGCCCTCGTAACCACCAACTAACATGTAAGCCCGGAGTCACCTAGTGCAG,9750 fluorescence intensity (a.u.)
12,GGGGCGGATAGGGGAGAACGAAGCGTGCGCGATCTGATCGCGGAGTCACCTAGTGCAG,8850 fluorescence intensity (a.u.)

# Remaining list, next part

row,Sequence,binding signal
1,TATCTGCATGGATCATATTTGTGTACGTCGTTGTTCTCCTCGGAGTCACCTAGTGCAG,8500 fluorescence intensity (a.u.)
2,GACCTAGCTAAAGTGTTCTTTTGTTGATGTATTTCCAATCCGGAGTCACCTAGTGCAG,8320 fluorescence intensity (a.u.)
3,AACGAGTGAAGCTCACTGCGGCTAGCTGCTGTCTTGTGTTCGGAGTCACCTAGTGCAG,8300 fluorescence intensity (a.u.)
4,TGCCGCCGCCGCCGCCACCACTGCTCCGCCTCCGATTGCTCGGAGTCACCTAGTGCAG,8570 fluorescence intensity (a.u.)
5,TGGTGTTGTTGGTGTCGTCTTGTTCTTGTTTGTGTTTTCTCGGAGTCACCTAGTGCAG,15900 fluorescence intensity (a.u.)
6,TGCAATCGGCCTCCTGTCCTGCTCCTGCTCTTGCTCTTGCCGGAGTCACCTAGTGCAG,8740 fluorescence intensity (a.u.)
7,TGTTCGGAATTGCAGGGAGGGAGAGGGCGGTTCGTTTATTCGGAGTCACCTAGTGCAG,8910 fluorescence intensity (a.u.)
8,ATATCTAACGGAAACCTGACGGGAGGGGCATGGGAGGAATCGGAGTCACCTAGTGCAG,9330 fluorescence intensity (a.u.)
9,TCATTATTACTGTACTGGCCATCAGCTTTTGCTGCTAACGCGGAGTCACCTAGTGCAG,9280 fluorescence intensity (a.u.)
10,ATTATATGTCATTTGACTTTTCTCTTAGCTAAAGTTCTTTCGGAGTCACCTAGTGCAG,9800 fluorescence intensity (a.u.)
11,GTGTGGGGCTACCTTTCTTCTCTTCGTTCCCTATCCCCTCCGGAGTCACCTAGTGCAG,9930 fluorescence intensity (a.u.)
12,GTGCTGTTCTTTAATTTACCCTGATACTTTTGGATATCTGCGGAGTCACCTAGTGCAG,10000 fluorescence intensity (a.u.)
13,ACACTCCCTAGCCACTCTCACGCCAGCGCCGCGACAACCACGGAGTCACCTAGTGCAG,10400 fluorescence intensity (a.u.)
14,CTCTTTTATACTCGATCGATCGCCACTCTACCTCCATCACCGGAGTCACCTAGTGCAG,9020 fluorescence intensity (a.u.)
15,TATGGCTGGATTCCTGTGTGGTGCTGGGTCCCTCAGTGAGCGGAGTCACCTAGTGCAG,9280 fluorescence intensity (a.u.)
16,GCCGCAGCTTCACAAGCCTCTGCCGTGCTCGCCGCTGCTGCGGAGTCACCTAGTGCAG,8190 fluorescence intensity (a.u.)
17,TCCGTGTCCAACGTTTGACTGTCCGTCTTATATGAAATTTCGGAGTCACCTAGTGCAG,8030 fluorescence intensity (a.u.)
18,TGGAGCCTTTTGCATACACCTAACGCCTCACCGAAGGACTCGGAGTCACCTAGTGCAG,8150 fluorescence intensity (a.u.)
19,CGGGGCCCAACGAGGTGGCGCCGTGGCTGGTGGGGCGGGTCGGAGTCACCTAGTGCAG,9270 fluorescence intensity (a.u.)
20,TCCGGTTGGATAAATAGGGCGGGTAAAAAATATCTTTCTCCGGAGTCACCTAGTGCAG,13300 fluorescence intensity (a.u.)
21,CTCCACATTAAACTAGTGCTACTACTCGTCTACTTGCCTACGGAGTCACCTAGTGCAG,8190 fluorescence intensity (a.u.)
